Data: publication PMC10873199

Amino acid sequences for entries named in this document (tags omitted).
UniProt P78395: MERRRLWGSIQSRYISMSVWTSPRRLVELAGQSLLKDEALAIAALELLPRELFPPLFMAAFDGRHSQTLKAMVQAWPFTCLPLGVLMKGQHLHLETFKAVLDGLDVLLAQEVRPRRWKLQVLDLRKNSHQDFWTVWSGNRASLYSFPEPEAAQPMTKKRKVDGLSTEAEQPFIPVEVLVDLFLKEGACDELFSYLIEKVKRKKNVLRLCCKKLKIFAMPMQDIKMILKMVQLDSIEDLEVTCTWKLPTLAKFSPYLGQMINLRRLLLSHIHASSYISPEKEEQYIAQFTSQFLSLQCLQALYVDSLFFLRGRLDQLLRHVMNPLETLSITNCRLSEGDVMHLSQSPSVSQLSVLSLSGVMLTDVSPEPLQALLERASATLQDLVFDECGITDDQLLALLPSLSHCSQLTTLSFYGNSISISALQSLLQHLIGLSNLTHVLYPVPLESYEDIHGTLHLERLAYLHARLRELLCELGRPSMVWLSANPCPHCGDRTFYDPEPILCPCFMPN
UniProt A6NHR9: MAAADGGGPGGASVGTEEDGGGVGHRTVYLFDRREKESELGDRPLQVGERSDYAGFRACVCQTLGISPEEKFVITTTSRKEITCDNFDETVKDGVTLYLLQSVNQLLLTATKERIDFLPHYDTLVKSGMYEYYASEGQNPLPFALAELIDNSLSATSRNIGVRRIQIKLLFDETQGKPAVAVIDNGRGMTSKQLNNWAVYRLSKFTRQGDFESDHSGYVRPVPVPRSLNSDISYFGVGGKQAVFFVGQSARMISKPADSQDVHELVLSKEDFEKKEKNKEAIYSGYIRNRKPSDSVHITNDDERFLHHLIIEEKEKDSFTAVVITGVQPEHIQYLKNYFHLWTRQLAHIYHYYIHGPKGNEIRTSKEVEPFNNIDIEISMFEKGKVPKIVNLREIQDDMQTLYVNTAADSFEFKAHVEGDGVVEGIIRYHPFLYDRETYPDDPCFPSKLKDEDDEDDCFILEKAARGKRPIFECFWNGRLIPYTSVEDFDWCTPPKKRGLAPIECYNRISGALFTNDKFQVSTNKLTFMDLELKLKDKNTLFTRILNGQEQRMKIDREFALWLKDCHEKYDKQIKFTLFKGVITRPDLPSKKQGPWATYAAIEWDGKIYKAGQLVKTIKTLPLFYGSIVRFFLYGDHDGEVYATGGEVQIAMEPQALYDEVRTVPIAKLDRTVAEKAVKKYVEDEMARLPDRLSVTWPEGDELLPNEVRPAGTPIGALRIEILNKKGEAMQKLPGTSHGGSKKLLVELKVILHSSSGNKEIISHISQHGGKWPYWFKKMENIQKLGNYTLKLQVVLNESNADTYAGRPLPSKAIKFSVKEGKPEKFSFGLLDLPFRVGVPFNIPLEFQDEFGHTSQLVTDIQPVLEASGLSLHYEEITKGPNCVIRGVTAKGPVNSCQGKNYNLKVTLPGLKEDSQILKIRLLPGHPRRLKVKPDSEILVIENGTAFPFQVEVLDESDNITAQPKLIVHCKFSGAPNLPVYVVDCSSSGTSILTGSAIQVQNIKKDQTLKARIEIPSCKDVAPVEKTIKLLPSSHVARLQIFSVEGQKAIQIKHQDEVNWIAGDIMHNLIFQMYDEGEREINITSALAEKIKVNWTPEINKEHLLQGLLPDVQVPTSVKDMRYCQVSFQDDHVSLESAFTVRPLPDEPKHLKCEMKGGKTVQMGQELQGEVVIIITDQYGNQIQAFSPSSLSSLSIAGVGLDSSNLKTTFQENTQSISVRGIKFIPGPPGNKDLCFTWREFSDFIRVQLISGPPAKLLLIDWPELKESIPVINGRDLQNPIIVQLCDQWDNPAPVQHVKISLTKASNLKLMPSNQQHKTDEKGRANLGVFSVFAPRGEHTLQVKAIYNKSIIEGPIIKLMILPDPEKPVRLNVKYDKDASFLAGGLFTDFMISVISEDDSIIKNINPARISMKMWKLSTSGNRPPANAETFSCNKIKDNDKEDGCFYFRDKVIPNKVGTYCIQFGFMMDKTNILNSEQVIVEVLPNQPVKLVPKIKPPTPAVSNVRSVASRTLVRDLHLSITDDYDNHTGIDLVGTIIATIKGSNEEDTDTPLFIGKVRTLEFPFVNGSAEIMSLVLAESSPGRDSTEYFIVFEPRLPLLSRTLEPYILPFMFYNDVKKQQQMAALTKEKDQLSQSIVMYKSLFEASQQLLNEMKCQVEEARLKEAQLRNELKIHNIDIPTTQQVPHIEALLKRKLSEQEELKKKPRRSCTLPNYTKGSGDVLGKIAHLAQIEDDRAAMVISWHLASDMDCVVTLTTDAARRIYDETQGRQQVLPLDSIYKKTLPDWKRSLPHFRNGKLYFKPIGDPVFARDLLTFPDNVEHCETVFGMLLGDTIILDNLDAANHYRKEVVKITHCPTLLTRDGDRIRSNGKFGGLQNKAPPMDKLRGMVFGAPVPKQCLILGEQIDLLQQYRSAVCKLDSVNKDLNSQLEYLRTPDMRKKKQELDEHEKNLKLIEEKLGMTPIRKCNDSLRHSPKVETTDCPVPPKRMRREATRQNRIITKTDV
UniProt Q8N3U4: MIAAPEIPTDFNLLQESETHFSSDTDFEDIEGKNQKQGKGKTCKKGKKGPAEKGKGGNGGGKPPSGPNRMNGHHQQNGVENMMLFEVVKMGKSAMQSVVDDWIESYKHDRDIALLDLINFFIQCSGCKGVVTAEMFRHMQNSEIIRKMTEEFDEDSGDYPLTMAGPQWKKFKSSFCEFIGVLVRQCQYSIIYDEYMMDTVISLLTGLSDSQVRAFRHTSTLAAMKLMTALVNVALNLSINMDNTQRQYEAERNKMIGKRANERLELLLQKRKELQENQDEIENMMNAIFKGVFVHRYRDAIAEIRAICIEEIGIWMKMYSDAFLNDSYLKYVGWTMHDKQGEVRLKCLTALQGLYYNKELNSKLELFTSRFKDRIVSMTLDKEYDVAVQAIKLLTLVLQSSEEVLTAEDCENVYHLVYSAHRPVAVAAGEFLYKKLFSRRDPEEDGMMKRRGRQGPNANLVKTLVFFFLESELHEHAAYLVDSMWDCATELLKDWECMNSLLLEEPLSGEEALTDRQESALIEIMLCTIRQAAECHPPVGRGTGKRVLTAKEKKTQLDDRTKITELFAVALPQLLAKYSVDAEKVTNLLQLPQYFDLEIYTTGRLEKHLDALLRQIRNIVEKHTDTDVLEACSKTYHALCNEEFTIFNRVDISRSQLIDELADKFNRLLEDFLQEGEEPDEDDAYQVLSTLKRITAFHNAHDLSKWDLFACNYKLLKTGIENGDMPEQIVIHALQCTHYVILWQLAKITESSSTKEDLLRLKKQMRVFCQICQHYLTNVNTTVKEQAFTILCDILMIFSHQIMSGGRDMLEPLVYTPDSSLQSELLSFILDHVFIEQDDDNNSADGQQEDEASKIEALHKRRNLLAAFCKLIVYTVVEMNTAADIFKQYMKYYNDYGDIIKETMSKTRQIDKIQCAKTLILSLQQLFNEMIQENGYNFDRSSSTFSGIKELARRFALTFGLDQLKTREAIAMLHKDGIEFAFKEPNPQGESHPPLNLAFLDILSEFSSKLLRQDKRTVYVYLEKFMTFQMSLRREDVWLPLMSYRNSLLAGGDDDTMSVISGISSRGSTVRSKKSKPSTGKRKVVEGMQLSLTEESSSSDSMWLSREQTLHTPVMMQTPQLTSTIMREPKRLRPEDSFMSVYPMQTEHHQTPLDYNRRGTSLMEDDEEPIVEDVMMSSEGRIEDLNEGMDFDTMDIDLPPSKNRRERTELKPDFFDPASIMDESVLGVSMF

T1: SMC1A (human (endogenous in Mel290)) (UniProt Q14683)
T1 sequence: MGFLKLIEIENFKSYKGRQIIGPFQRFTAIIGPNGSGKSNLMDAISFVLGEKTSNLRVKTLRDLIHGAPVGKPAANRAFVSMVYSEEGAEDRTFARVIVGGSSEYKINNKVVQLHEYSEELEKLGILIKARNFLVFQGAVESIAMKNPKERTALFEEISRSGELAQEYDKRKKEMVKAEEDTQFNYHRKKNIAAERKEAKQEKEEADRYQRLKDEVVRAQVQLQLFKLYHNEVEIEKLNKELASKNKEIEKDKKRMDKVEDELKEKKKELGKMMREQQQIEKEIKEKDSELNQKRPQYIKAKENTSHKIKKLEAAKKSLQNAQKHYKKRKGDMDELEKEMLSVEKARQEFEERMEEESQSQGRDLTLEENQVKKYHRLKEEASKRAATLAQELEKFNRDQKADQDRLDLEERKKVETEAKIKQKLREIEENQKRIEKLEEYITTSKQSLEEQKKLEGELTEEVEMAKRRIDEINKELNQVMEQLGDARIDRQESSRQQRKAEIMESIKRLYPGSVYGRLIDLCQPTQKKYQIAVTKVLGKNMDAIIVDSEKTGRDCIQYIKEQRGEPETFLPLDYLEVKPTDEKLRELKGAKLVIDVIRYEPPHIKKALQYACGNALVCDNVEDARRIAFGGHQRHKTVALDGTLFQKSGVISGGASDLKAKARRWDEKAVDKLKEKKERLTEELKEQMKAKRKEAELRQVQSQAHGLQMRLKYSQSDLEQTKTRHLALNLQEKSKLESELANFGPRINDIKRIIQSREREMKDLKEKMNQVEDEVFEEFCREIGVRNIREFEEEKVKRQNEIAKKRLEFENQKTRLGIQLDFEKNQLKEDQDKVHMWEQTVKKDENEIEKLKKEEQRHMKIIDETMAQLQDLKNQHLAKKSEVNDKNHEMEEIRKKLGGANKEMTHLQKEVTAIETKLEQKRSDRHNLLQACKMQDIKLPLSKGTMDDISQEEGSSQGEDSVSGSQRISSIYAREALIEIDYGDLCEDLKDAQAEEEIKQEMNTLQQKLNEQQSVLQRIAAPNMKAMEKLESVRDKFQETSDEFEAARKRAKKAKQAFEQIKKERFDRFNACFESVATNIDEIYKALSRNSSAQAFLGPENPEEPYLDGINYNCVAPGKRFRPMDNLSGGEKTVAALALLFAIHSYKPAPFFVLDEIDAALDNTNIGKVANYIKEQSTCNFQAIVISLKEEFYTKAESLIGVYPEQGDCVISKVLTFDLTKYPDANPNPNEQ

B1: NUP107 (protein, UniProt P57740 1-925)
chain: MDRSGFGEISSPVIREAEVTRTARKQSAQKRVLLQASQDENFGNTTPRNQVIPRTPSSFRQPFTPTSRSLLRQPDISCILGTGGKSPRLTQSSGFFGNLSMVTNLDDSNWAAAFSSQRSGLFTNTEPHSITEDVTISAVMLREDDPGEAASMSMFSDFLQSFLKHSSSTVFDLVEEYENICGSQVNILSKIVSRATPGLQKFSKTASMLWLLQQEMVTWRLLASLYRDRIQSALEEESVFAVTAVNASEKTVVEALFQRDSLVRQSQLVVDWLESIAKDEIGEFSDNIEFYAKSVYWENTLHTLKQRQLTSYVGSVRPLVTELDPDAPIRQKMPLDDLDREDEVRLLKYLFTLIRAGMTEEAQRLCKRCGQAWRAATLEGWKLYHDPNVNGGTELEPVEGNPYRRIWKISCWRMAEDELFNRYERAIYAALSGNLKQLLPVCDTWEDTVWAYFRVMVDSLVEQEIQTSVATLDETEELPREYLGANWTLEKVFEELQATDKKRVLEENQEHYHIVQKFLILGDIDGLMDEFSKWLSKSRNNLPGHLLRFMTHLILFFRTLGLQTKEEVSIEVLKTYIQLLIREKHTNLIAFYTCHLPQDLAVAQYALFLESVTEFEQRHHCLELAKEADLDVATITKTVVENIRKKDNGEFSHHDLAPALDTGTTEEDRLKIDVIDWLVFDPAQRAEALKQGNAIMRKFLASKKHEAAKEVFVKIPQDSIAEIYNQCEEQGMESPLPAEDDNAIREHLCIRAYLEAHETFNEWFKHMNSVPQKPALIPQPTFTEKVAHEHKEKKYEMDFGIWKGHLDALTADVKEKMYNVLLFVDGGWMVDVREDAKEDHERTHQMVLLRKLCLPMLCFLLHTILHSTGQYQECLQLADMVSSERHKLYLVFSKEELRKLLQKLRESSLMLLDQGLDPLGYEIQL

Experiments:
[1] = biological target: BioID2-tagged PRAME (human) (UniProt P78395); experiment: proximity labelling; BioID2-tagged PRAME expressed in Mel290 cells; biotinylation induced with 30 µM biotin over 5 days; pull down and mass spectrometry
[2] = biological target: T1, SMC1A (human (endogenous in Mel290)); experiment: affinity purification with mass spectrometry; endogenous SMC1A immunoprecipitated (10 µg SMC1a antibody, Protein A Dynabeads) from Mel290 lysate with or without induction of PRAME; mass spectrometry

Row | Molecule | binding [1] | binding [2]
1 | HUWE1 (from UniProt Q7Z6Z7 1-4374) | binds | –
2 | SMHD1 (from UniProt A6NHR9 1-2005) | binds | –
3 | STAG2 (from UniProt Q8N3U4 1-1231) | – | binds
4 | B1 | binds | –

These are yes or no findings as the source states them, for the method shown. In cells and extracts the contact can be indirect. A yes stands for co-enrichment or nearness to the bait. Other partners may have been found.
